Literature values as cited in PMC3100183 (Biochemistry, 2011).
pKi: −log10 of the molar value.

Test system: EET binding site/receptor on U937 cell membranes
Settings: read-out: Ki, inhibition of 20-125I-14,15-EE5ZE binding; cited from earlier work

In the case of `Clc1ccc(COC(Cn2ccnc2)c2ccc(Cl)cc2Cl)c(Cl)c1` (stereo not shown) [miconazole], the pKi is listed as 6.46.
